Data as given in PubChem BioAssay AID1729 (National Center for Advancing Translational Sciences (NCATS), 2009).
This list was built around the results that the source calls inconclusive (neither active nor inactive); the mix of calls is not that of the screen. The call rests on the fitted dose curve; in most records, active means well fitted curve in the direction sought with a large enough effect; inconclusive means small, poorly fitted or top-dose-only effect, or effect the other way, or another doubt; inactive means no such curve, though single readings can be large or run the other way. Potencies beside an inconclusive call are fits to weak or partial responses and may not hold up.

Target: Epidermal growth factor receptor (Homo sapiens) (UniProt P00533)
Assay: Assay for Inhibitors of the ERK Signaling Pathway using a Homogeneous Screening Assay: EGFR T790M Kinase Inhibition
Conditions: EGFR T790M kinase biochemical inhibition assay
Source text: qHTS Assay for Inhibitors of the ERK Signaling Pathway using a Homogeneous Screening Assay
NIH Chemical Genomics Center [NCGC]
NIH Molecular Libraries Screening Centers Network [MLSCN]
Assay Submitter (PI): Dr. Wei Zheng, NCGC/NIH
The Ras/extracellular-signal-regulated kinase (ERK) mitogen activated protein (MAP) kinase signaling pathway (ERK1/2 cascade) plays is a key role in transmitting signals from the cell surface to the nucleus (Nishida and Gotoh 1993; Chang and Karin, 2001). The cascade is initiated by the small G-protein Ras, which recruits Raf […], where activation occurs. Alternatively, this pathway can be activated by elevating intracellular cAMP.
Activation of the ERK pathway is essential in increased cell division and cell survival. Sustained and constitutive activation of the ERK pathway, however, has been linked to uncontrolled cell proliferation, increased cell survival, and tumor progression. Thus, the ERK has been as an attractive target for cancer chemotherapy in the past few years (Sebolt-Leopold and Herrera, 2004). […]
The HTRF kinase assay (components supplied as kit by Cisbio) was chosen for the EGFR and EGFR mutant enzyme assays that applied the time resolved fluorescence resonance energy transfer (TR-FRET) principle. […]

SMILES: CN1CCN(c2cccc3c2C(=O)c2ccccc2C3=O)CC1
- Potency: inconclusive: 28.2 µM [activator, single point]
